Reference: US20070009544A1, “Anti-allergic complex molecules” (priority 1999, published 2007)

System: abdominal skin of C.R rats
Test: Rat skin test: intradermal injection of peptide, then intradermal compound 48/80 or vehicle, wheal area
Assay type: in vivo
Settings: 0.5 hour incubation; Fenistil Gel 100 mg t.a., Ceterizine 0.01 mg/ml i.d., Cromoglycate 20 mg/ml i.d., Peptide 2 10 mg/ml i.d.; no treatment 115.5 ± 30.4
Procedure: The hair of the abdominal area of C.R rats was carefully removed with an electric clipper and a depilatory cream. In each animal the abdominal area was divided to six equal zones that were marked by pen. Each zone was either subjected to peptide treatment or served as a control. In the first set of experiments, the peptide was topically applied as follows: 36 μl of peptide solution at the indicated concentration (dissolved in 72% DMSO in saline) was applied on desired abdominal area. […]
Skin tests were performed 0.5, 1 or 2 hours following application of the peptide. […] The allergic response was monitored by outlining with a marker the wheals which developed in response to allergen or saline treatment.
To quantitate the skin test results, the marker signs were transferred onto paper with scotch tape. The areas of the wheals were outlined and calculated by a computerized planimeter (Hewlett-Packard), as previously described (Sussman et al., 1982).
Tables 10-16 presents the mean areas of the wheals, which developed in response to intradermal injection of each of the tested peptides, followed by either compound 48/80 or DDW injection applied after 0.5 or 1 hour. […] Mean wheal areas were calculated for each treatment and the significance of the results was determined using student's T-test. […]

Structure (SMILES): O=C(O)COCCN1CCN(C(c2ccccc2)c2ccc(Cl)cc2)CC1 (stereo not shown) [Ceterizine, reference compound]
- Mean wheal size, compound 48/80-induced cutaneous reaction: 86.6 ± 23.4 mm^2
